These are yes or no findings as the source states them, for the method shown. In cells and extracts the contact can be indirect.
Biological target: receptor tyrosine kinase MET (human (endogenous in ALCL cell lines)) (UniProt P08581)
Experiment: co-IP; various immunoprecipitation approaches in ALCL cell lines; endogenous proteins; no further details given

Protein sequences, listed by entry. Tags and fused reporters are not part of them. Lines headed by an entry give the natural chain unless they say otherwise; changes in a name come on top. Residues count along the entry.
UniProt P08581, residues 25-1390: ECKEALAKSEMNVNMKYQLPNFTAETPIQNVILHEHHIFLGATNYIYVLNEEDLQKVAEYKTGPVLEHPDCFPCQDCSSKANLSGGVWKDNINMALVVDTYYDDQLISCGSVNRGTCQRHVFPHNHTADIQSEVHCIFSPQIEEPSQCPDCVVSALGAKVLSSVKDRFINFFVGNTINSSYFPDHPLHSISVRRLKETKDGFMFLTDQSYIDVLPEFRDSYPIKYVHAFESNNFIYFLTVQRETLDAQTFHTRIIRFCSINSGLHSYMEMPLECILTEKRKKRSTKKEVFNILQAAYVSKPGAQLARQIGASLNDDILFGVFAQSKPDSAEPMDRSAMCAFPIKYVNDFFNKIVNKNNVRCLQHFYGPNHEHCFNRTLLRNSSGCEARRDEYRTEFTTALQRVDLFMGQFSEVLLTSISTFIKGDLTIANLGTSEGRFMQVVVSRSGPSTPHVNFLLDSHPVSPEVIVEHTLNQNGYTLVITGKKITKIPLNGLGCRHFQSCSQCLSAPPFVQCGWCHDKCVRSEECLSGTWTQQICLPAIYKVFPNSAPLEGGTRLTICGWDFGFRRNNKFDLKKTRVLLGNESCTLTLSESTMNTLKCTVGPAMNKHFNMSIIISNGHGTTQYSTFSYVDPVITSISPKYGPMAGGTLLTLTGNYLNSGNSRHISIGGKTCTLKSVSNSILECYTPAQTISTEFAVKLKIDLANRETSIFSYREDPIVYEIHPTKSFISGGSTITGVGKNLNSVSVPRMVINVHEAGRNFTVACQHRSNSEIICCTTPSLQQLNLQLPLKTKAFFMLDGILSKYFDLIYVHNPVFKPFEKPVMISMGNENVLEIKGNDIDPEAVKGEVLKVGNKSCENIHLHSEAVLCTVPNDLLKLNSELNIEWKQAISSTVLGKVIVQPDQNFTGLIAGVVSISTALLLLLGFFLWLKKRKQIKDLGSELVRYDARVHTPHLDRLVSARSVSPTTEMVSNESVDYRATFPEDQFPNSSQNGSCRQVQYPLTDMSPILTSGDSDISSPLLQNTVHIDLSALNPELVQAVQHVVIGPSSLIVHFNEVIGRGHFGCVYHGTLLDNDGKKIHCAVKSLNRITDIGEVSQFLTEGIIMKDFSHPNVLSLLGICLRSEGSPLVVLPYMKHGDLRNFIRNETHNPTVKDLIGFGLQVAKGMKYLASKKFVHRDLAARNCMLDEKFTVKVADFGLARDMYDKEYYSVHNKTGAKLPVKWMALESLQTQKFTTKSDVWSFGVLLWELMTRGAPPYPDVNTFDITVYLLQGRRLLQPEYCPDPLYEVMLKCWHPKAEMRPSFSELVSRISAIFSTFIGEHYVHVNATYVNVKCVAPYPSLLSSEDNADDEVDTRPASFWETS
UniProt P04233: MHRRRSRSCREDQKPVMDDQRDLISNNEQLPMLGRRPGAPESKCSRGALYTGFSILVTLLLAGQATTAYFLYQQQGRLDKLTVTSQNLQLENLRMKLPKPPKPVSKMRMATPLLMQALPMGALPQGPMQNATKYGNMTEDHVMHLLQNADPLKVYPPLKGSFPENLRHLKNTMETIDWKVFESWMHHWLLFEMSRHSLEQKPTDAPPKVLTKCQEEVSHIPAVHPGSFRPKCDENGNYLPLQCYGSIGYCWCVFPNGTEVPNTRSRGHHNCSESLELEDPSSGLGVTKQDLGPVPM

## CD74 (invariant chain of major histocompatibility complex [MHC]-II) (from UniProt P04233 1-296)
  binding: no binding
